Data on one molecule can be found in patent US20040116333A1 (ABGENOMICS COOPERATIEF U A, published 2004).

This assay has as its target T1, mouse P-selectin glycoprotein ligand-1 (PSGL-1), first designated T cell apoptosis inducing protein (TAIP) (mouse) (UniProt Q62170).
T1 sequence (looked up): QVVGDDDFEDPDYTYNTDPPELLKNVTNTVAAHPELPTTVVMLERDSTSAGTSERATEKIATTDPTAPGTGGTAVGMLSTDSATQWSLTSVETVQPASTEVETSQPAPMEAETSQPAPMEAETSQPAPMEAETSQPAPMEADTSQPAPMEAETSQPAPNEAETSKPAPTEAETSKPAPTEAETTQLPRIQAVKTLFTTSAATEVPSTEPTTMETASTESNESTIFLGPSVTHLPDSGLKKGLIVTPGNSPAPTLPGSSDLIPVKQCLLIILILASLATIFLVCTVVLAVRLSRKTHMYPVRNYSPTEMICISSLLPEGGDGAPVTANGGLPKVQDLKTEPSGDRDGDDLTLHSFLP
Briefly: flow cytometry on Con A-activated mouse T cells, FITC-anti human IgG Fc detection.

These are yes or no findings as the source states them, for the method shown. Some binding calls cover weakened binding; strength is not graded here. Sequences can lack the tags named with a protein.

B1: recombinant mouse E-selectin/Fc chimera (R&D Systems) (Fc fusion, not shown: a dimerising Fc or GST)
chain (part 1 of 2): WYYNASSELMTYDEASAYCQRDYTHLVAIQNKEEINYLNSNLKHSPSYYWIGIRKVNNVWIWVGTGKPLTEEAQNWAPGEPNNKQRNEDCVEIYIQRTKDSGMWNDERCNKKKLALCYTASCTNASCSGHGECIETINSYTCKCHPGFLGPNCEQAVTCKPQEHPDYGSLNCSHPFGPFSYNSSCSFGCKRGYLPSSMETTVRCTSSGEWSAPAPACHVVECEALTHPAHGIRKCSSNPGSYPWNTTCTFDCVEGYRRVGAQNLQCTSSGIWDNETPSCKAVTCDAIPQPQNGFVSCSHSTAGELAFKSSCNFTCEQSFTLQGPAQVECSAQGQWTPQIPVCKAVQCEALSAPQQGNMKCLPSASGPFQNGSSCEFSCEEGFELKGSRRLQCGPRGEWDSKKPTCSAVKCDDVPRPQNGVMECAHATTGEFTYKSSCAFQCNEGFSLHGSAQLECTSQGKWTQEVPSCQVVQCPSLDVPGKMNMSCSGTAVFGTVCEFTCPDDWTLNGSAVLTCGATGRWSGMPPTCEAPVSPTRPIEGRMD
chain (part 2 of 2): HHHHHH
For B1, the binding result was “binds”.
